Test results published in patent US20110263483A1.
No constants are given. Whether binding was seen depends on the method and setting. For some assays here: In cells and extracts the contact can be indirect. Some entries that bind do so weakly or less than the wild type. Sequences can lack the tags named with a protein.

The chains behind the UniProt entries cited, without tags or fusion partners. Where a name states a change or a piece, a line headed by the entry shows the natural chain unless it says otherwise.
UniProt Q8VI36: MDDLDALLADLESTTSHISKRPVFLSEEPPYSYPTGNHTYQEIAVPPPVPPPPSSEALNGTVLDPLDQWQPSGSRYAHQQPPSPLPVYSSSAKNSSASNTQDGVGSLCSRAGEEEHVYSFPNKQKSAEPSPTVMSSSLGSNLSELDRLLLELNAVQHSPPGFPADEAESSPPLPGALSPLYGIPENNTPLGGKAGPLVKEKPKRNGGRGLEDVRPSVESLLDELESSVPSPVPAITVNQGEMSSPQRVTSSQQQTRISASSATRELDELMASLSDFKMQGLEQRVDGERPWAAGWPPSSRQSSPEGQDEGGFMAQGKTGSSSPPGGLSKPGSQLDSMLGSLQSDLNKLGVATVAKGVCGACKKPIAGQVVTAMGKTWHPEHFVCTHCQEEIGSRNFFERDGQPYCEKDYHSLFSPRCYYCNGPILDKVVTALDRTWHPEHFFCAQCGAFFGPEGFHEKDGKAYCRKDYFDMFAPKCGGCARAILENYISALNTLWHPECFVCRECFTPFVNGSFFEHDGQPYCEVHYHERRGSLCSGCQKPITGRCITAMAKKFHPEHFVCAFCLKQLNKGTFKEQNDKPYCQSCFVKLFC
UniProt Q62219: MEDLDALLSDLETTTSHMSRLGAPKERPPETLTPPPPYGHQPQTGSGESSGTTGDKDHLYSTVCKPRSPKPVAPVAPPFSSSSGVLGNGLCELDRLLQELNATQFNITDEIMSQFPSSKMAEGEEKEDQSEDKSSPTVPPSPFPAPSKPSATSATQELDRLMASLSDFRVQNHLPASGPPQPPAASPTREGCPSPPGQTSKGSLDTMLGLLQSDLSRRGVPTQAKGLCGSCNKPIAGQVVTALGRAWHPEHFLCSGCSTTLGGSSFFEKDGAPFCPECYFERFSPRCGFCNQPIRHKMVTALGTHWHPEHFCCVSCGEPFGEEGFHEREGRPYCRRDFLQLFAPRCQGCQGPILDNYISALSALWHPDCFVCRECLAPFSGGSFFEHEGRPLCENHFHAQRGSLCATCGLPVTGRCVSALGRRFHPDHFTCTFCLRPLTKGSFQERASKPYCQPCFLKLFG

How the values were obtained:
[1] = target: T1, Robo4 cytoplasmic tail-HA (UniProt Q8C310); assay: co-immunoprecipitation from co-transfected HEK 293 cells
T1 sequence (looked up): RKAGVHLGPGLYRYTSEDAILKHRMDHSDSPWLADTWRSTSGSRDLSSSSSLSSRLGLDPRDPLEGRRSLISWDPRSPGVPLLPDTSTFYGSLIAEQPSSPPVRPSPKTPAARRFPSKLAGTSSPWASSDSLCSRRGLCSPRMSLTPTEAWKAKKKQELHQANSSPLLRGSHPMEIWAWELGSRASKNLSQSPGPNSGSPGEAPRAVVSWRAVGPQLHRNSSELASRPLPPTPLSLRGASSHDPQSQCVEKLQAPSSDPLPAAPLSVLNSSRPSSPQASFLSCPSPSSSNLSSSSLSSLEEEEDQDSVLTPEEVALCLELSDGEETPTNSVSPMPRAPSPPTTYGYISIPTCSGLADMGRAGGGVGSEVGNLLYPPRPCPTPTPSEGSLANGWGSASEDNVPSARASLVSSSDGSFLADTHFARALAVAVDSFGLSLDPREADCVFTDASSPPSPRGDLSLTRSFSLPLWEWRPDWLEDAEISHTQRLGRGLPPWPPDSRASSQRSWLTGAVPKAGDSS

[2] = target: T1, Robo4 cytoplasmic tail-HA; assay: co-immunoprecipitation with HA antibodies, western blot with V5 antibodies
[3] = target: T1, Robo4 cytoplasmic tail-HA; assay: co-immunoprecipitation with HA antibodies, western blot with V5 antibodies (FIG. 3A)
[4] = target: T1, Robo4 cytoplasmic tail-HA; assay: co-immunoprecipitation with HA antibodies, western blot with V5 antibodies (FIG. 3C)
[5] = target: T2, full length Robo4-HA (UniProt Q8C310); assay: immunofluorescence of Slit-myc conditioned medium on Robo4-HEK cells (FIG. 17C-F)
T2 sequence (looked up): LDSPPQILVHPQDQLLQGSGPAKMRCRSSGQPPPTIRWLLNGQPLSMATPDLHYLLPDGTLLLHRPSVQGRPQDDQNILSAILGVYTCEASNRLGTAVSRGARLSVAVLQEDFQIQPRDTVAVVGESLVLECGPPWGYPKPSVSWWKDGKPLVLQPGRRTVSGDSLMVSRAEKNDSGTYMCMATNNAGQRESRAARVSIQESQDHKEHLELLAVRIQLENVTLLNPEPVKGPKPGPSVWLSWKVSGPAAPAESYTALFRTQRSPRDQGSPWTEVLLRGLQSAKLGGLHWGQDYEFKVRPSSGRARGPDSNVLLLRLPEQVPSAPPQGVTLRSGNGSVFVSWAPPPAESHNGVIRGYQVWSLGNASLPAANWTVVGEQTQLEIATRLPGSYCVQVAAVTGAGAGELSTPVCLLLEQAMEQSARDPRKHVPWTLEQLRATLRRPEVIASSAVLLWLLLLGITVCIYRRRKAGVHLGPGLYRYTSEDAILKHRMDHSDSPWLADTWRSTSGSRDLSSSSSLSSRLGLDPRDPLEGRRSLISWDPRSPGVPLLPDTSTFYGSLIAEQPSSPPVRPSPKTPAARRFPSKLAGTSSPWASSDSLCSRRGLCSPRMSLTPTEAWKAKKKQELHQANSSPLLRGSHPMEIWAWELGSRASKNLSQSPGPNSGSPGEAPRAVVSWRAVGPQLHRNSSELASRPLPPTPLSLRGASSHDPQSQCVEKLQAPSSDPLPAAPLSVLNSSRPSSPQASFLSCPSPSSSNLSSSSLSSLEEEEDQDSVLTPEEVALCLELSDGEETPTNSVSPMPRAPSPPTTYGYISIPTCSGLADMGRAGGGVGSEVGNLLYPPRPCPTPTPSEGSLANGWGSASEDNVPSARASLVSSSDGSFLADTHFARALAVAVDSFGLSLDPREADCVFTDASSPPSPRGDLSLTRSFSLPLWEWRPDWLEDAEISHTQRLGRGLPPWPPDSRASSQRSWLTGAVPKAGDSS

[6] = target: T2, full length Robo4-HA; assay: immunoprecipitation of combined HEK cell lysates with anti-HA, western blot with anti-myc
[7] = target: T3, N-terminal soluble ectodomain of Robo4 tagged with the HA epitope (NRobo4-HA) (UniProt Q8C310); assay: immunoprecipitation of combined conditioned media with anti-HA, western blot with anti-myc
T3 sequence (looked up): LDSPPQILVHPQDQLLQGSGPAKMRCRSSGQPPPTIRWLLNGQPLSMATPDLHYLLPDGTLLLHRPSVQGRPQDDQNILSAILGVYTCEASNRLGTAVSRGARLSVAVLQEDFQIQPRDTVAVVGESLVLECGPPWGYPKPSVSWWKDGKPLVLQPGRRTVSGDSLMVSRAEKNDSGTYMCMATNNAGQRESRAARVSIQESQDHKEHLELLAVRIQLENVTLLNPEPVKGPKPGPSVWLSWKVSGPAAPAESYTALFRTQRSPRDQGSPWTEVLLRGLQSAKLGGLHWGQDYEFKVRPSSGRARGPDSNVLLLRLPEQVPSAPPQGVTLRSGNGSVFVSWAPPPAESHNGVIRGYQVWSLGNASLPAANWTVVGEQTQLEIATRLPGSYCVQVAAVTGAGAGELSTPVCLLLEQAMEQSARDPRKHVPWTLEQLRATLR

[8] = target: T2, full length Robo4-HA; assay: immunoprecipitation of combined HEK cell lysates with anti-HA, western blot with anti-myc (FIG. 17A)
[9] = target: T3, N-terminal soluble ectodomain of Robo4 tagged with the HA epitope (NRobo4-HA); assay: immunoprecipitation of combined conditioned media with anti-HA, western blot with anti-myc (FIG. 17B)
[10] = target: T2, full length Robo4-HA; assay: immunofluorescence of Slit-myc conditioned medium on Robo4-HEK cells, anti-myc and Alexa 594 anti-mouse antibody

## paxillin-Lim (from UniProt Q8VI36 356-591)
[1]
  binding: binds

## Hic-5-V5 (murine Hic-5 in pcDNA3-V5) (from UniProt Q62219 1-461)
[2]
  binding: binds
[3]
  binding: binds

## paxillin-V5 (murine paxillin in pcDNA3-V5) (from UniProt Q8VI36 1-591)
[2]
  binding: binds
[4]
  binding: binds

B1: Slit tagged with a myc epitope (Slit-myc) (ligand, UniProt O94813 31-1529, looked up, not shown: small tags and cut ends)
chain: QCSCSGSTVDCHGLALRSVPRNIPRNTERLDLNGNNITRITKTDFAGLRHLRVLQLMENKISTIERGAFQDLKELERLRLNRNHLQLFPELLFLGTAKLYRLDLSENQIQAIPRKAFRGAVDIKNLQLDYNQISCIEDGAFRALRDLEVLTLNNNNITRLSVASFNHMPKLRTFRLHSNNLYCDCHLAWLSDWLRQRPRVGLYTQCMGPSHLRGHNVAEVQKREFVCSGHQSFMAPSCSVLHCPAACTCSNNIVDCRGKGLTEIPTNLPETITEIRLEQNTIKVIPPGAFSPYKKLRRIDLSNNQISELAPDAFQGLRSLNSLVLYGNKITELPKSLFEGLFSLQLLLLNANKINCLRVDAFQDLHNLNLLSLYDNKLQTIAKGTFSPLRAIQTMHLAQNPFICDCHLKWLADYLHTNPIETSGARCTSPRRLANKRIGQIKSKKFRCSAKEQYFIPGTEDYRSKLSGDCFADLACPEKCRCEGTTVDCSNQKLNKIPEHIPQYTAELRLNNNEFTVLEATGIFKKLPQLRKINFSNNKITDIEEGAFEGASGVNEILLTSNRLENVQHKMFKGLESLKTLMLRSNRITCVGNDSFIGLSSVRLLSLYDNQITTVAPGAFDTLHSLSTLNLLANPFNCNCYLAWLGEWLRKKRIVTGNPRCQKPYFLKEIPIQDVAIQDFTCDDGNDDNSCSPLSRCPTECTCLDTVVRCSNKGLKVLPKGIPRDVTELYLDGNQFTLVPKELSNYKHLTLIDLSNNRISTLSNQSFSNMTQLLTLILSYNRLRCIPPRTFDGLKSLRLLSLHGNDISVVPEGAFNDLSALSHLAIGANPLYCDCNMQWLSDWVKSEYKEPGIARCAGPGEMADKLLLTTPSKKFTCQGPVDVNILAKCNPCLSNPCKNDGTCNSDPVDFYRCTCPYGFKGQDCDVPIHACISNPCKHGGTCHLKEGEEDGFWCICADGFEGENCEVNVDDCEDNDCENNSTCVDGINNYTCLCPPEYTGELCEEKLDFCAQDLNPCQHDSKCILTPKGFKCDCTPGYVGEHCDIDFDDCQDNKCKNGAHCTDAVNGYTCICPEGYSGLFCEFSPPMVLPRTSPCDNFDCQNGAQCIVRINEPICQCLPGYQGEKCEKLVSVNFINKESYLQIPSAKVRPQTNITLQIATDEDSGILLYKGDKDHIAVELYRGRVRASYDTGSHPASAIYSVETINDGNFHIVELLALDQSLSLSVDGGNPKIITNLSKQSTLNFDSPLYVGGMPGKSNVASLRQAPGQNGTSFHGCIRNLYINSELQDFQKVPMQTGILPGCEPCHKKVCAHGTCQPSSQAGFTCECQEGWMGPLCDQRTNDPCLGNKCVHGTCLPINAFSYSCKCLEGHGGVLCDEEEDLFNPCQAIKCKHGKCRLSGLGQPYCECSSGYTGDSCDREISCRGERIRDYYQKQQGYAACQTTKKVSRLECRGGCAGGQCCGPLRSKRRKYSFECTDGSSFVDEVEKVVKCGCTRCVS
[5]
  binding: binds
[6]
  binding: binds
[7]
  binding: binds
[8]
  binding: binds
[9]
  binding: binds
[10]
  binding: binds
